From the supplement of paper PMC3334620
Over roughly 33,000 sequences, “E-score (-0.5 to 0.5)” has its median near -8e-05; the highest 2% begin near 0.23. The list shows a part of the results.

target: T1, Nrg2 (UniProt P38082); assay: PBM E-score (8-mer binding enrichment) (E-score (-0.5 to 0.5)); higher = stronger / more preferred TF binding; details: protein concentration: 100 nM; construct: GST-full length
T1 sequence: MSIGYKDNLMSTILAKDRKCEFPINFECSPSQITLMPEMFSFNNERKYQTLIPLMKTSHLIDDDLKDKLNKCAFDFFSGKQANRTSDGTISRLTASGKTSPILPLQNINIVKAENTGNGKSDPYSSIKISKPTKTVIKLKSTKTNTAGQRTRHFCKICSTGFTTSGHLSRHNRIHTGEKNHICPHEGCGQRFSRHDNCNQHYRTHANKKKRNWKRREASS
Protocol: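 Universal 'all 10-mer' protein binding microarrays (Agilent AMADID 015681) probed with GST-tagged S. cerevisiae TFs (full-length or DBD) made by in vitro transcription/translation (PURExpress), about 100-200 nM. Bound TF was detected with fluorescent anti-GST. Each ungapped 8-mer (which stands for itself and its reverse complement) is scored by the PBM enrichment score (E-score), a modified Wilcoxon-Mann-Whitney statistic from -0.5 to +0.5, computed with the Universal PBM Analysis Suite. Scale: above 0.35 generally sequence-specific binding.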

| Sequence | PBM E-score |
| --- | --- |
| GATCGTGA | -0.0852 |
| CCACGTCA | 0.0201 |
| CGCTCAGC | -0.0441 |
| CGAGTGAA | 0.0132 |
| CGTCTGCA | -0.103 |
| GAAATGTA | 0.142 |
| ATCTAGAC | 0.00931 |
| CTCGAAGA | -0.0616 |
| CATCTCAA | -0.0442 |
| GACTTCCA | -0.0242 |
| GTCTGAGA | -0.148 |
| AAATCTCA | 0.17 |
| CAGAATAC | 0.106 |
| TGACCGCA | -0.0772 |
| CCCCGCAC | -0.108 |
| AATGTAAC | 0.0564 |
| GGAGAGGA | -0.215 |
| AGCAAATC | 0.147 |
| TAAATGTA | 0.0489 |
| GAGGGTTA | -0.0786 |
| CCAATCCG | 0.0817 |
| AGGGTCAC | -0.0206 |
| GTAGTAAA | 0.0445 |
| ACAACTAC | 0.101 |

Quoted from the entries so far (2 entries):

| Sequence | PBM E-score |
| --- | --- |
| CGTCTGCA | -0.103 |
| GAAATGTA | 0.142 |

(further entries)

| Sequence | PBM E-score |
| --- | --- |
| CTATCAAG | 0.0817 |
| GGGGCCTA | -0.261 |
| GTCTTCAC | -0.185 |
| ATAATTAC | 0.176 |
| ACGATAAT | 0.0182 |
| ACATAATG | 0.0329 |
| GTCTTCCA | -0.186 |
| GCACGTAA | -0.0988 |
| CGCTATAG | -0.141 |
| ATCCGCAG | 0.164 |
| ATATCGTA | 0.0228 |
| GTTAGGTA | 0.0846 |
| AAGGACAG | 0.0182 |
| CTGCGAAC | -0.189 |
| AATGGAGG | -0.0543 |
| AGATATAC | 0.111 |
| ATAGAGCC | -0.0518 |
| ACAGGAGG | -0.331 |
| GCGACGGA | -0.0205 |
| GGCAGGTA | -0.143 |
| CCAAGGTA | -0.00169 |
| AAAGACTC | -0.11 |
| CCATGCCG | 0.0755 |
| GTGTTAAA | -0.127 |

| Sequence | PBM E-score |
| --- | --- |
| ATATTAGA | 0.194 |
| AAAGGAGA | -0.0662 |
| AAGGATAA | -0.105 |
| GGAAGCGA | 0.0555 |
| GCTTGACC | -0.0509 |
| ACCGGCTA | -0.224 |
| ATGTCCGG | 0.0983 |
| AGAAACGC | -0.113 |
| CGTCGTCA | 0.0219 |
| TCGAACCA | 0.0109 |
| ACCGATTC | -0.113 |
| GGCGGTTA | -0.0436 |
| GCTCGTAC | -0.0941 |
| GCAAGAGA | -0.12 |
| AGTCAGGC | 0.106 |
| GAATCATC | -0.0867 |
| CATCTGAA | 0.00669 |
| CGAAACTC | 0.0403 |
| ATAGACTG | -0.0756 |
| AGCAGGAA | -0.0442 |
| AAGGATCT | -0.0426 |
| CCGGAACG | 0.0162 |
| CTGTGATA | 3e-05 |
| ATCCGAAT | 0.251 |

| Sequence | PBM E-score |
| --- | --- |
| AGGCTGGG | -0.142 |
| ACCTCTAA | -0.156 |
| CGATATTC | 0.153 |
| AATACATG | 0.121 |
| TGTATTAA | 0.201 |
| ACGACCAG | -0.0283 |
| CTGTGGTC | -0.0508 |
| AGCATTAA | 0.112 |
| AAACCCCA | 0.114 |
| ACGCGCGC | 0.279 |
| CTATCAGA | -0.205 |
| AGATATGG | 0.155 |
| CCCTGAAA | 0.305 |
| CCTGTAAA | -0.123 |
| AAAGCCAA | 0.043 |
| CGCGAAGA | 0.12 |
| ACTTTTAA | -0.0763 |
| CCACGAGC | -0.085 |
| AGTTTCCC | -0.0308 |
| GATCGGGC | -0.0363 |
| ACCGCGCT | 0.0712 |
| ACTGCGGA | -0.0585 |

Another view of part of the listing above:
CCACGAGC
  PBM E-score = -0.085
AGTTTCCC
  PBM E-score = -0.0308
GATCGGGC
  PBM E-score = -0.0363
